Data published in paper PMC9251929.

Amino acid sequences for entries named in this document (tags omitted). A change or cut given only in a name is not applied to a line headed by its entry.
UniProt A0A7U3QAH2: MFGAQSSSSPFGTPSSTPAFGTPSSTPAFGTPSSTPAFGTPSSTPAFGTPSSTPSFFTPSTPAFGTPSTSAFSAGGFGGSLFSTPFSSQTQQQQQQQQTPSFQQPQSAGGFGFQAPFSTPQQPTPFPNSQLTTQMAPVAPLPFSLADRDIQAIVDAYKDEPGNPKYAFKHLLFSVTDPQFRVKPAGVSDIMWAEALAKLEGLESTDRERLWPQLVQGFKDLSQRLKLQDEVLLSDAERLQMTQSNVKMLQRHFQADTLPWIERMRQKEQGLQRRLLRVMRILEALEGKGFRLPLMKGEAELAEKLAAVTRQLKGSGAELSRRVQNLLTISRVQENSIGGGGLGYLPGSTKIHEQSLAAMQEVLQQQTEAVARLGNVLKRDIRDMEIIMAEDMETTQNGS

Biological target: MdNup62-NLUC (apple (Malus × domestica))
Experiment: split reporter; luciferase (LUC) complementation experiment of MdNup62 and MdNup54 (Figure S1); constructs and host not told for this pair

Substance: MdNup54 (from UniProt A0A7U3QAH2)
- binding: binds

Results are given in words; binding and its absence hold for the method and conditions named. Binding seen in cells or lysates may run through a third protein. Binding calls can cover weak binding; strength is not graded here.
